# Assay results taken from PubChem BioAssay AID1671190 (National Center for Advancing Translational Sciences (NCATS), 2021).
# Sequences of proteins named here, by UniProt entry; tags and fusion partners are left off. A change or cut given only in a name is not applied to a line headed by its entry.
# UniProt P18054: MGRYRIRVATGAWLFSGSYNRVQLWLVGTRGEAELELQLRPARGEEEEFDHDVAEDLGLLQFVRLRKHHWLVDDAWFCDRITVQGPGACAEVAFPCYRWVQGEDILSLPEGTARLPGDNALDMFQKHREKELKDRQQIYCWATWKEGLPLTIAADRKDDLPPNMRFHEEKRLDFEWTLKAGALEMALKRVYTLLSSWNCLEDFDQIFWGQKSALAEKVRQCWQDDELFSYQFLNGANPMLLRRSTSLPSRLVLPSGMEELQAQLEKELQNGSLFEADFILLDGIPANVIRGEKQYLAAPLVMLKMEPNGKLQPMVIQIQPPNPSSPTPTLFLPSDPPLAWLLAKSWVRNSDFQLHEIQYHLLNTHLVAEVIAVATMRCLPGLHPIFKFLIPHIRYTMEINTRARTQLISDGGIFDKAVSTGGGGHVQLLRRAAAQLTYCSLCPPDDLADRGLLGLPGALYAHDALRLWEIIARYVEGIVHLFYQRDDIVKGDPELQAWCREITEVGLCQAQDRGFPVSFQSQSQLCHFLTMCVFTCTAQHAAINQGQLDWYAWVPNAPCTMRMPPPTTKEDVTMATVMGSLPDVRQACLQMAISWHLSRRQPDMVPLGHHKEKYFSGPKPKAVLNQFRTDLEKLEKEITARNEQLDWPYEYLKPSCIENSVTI
# The campaign covered roughly 580,000 compounds. About 6,100 (1.1%) were called active. Another 15% or so got no clear call; they are omitted. Calls follow the shape of the dose curve; as a rule, active = well fitted inhibition curve with a large enough effect; inconclusive = small, poorly fitted or top-dose-only effect, or another doubt; inactive = no such curve, though single readings can be large or run the other way. The entries are a selection whose mix differs from that of the whole data set. The source gives no active or inactive call for entries shown without one.
# Target: Polyunsaturated fatty acid lipoxygenase ALOX12 (Homo sapiens) (UniProt P18054)
# Experiment: Primary qHTS assay for inhibitors of human arachidonate 12S-lipoxygenase (ALOX12): Round 2
# Details: purified 12hLO, xylenol orange hydroperoxide absorbance; activity change, negative = inhibition: at 0.00344 µM (top of the series) unless noted
# Procedure, shortened: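 Hydroperoxide product was detected by ferrous iron/xylenol orange as the 573 to 405 nm absorbance ratio. Arachidonic acid at 40 uM (final) was turned over for 30 min at room temperature by 150 nM human 12hLO, pH 7.0 Hepes buffer, after 15 min compound preincubation.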
# % is scaled to controls: 0 for no effect and ±100 for the full control effect; potency is read from the fitted curve at half-maximal effect.
SMILES,Potency,"activity change, negative = inhibition"
Cl/C(=C/c1ccc(Cl)cc1)c1ncc(-c2ccc(Cl)cc2)o1,active: 35.5 µM,–
FC(F)(F)C(F)(F)C(F)(F)C(F)(F)C(F)(F)C(F)(F)C(F)(F)C(F)(F)Br,–,-24.8%
CN(C)CCC[C@@]1(c2ccc(F)cc2)OCc2cc(C#N)ccc21,–,16.7%
CC(=O)Oc1cccc(O)c1,–,51.8%
Cc1cc2c(cc1C)CSC(c1c(O)ccc3cc(Br)ccc13)SC2,active: 0.794 µM,–
CCCc1c(OCCCCc2nn[nH]n2)ccc(C(C)=O)c1O,–,11%
CO[C@@H]1[C@@H](OC(N)=O)[C@@H](O)[C@H](Oc2ccc3c(O)c(NC(=O)c4ccc(O)c(CC=C(C)C)c4)c(=O)oc3c2C)OC1(C)C,–,3.06%
CCOc1ccc2c(c1)cc(C(=O)NCc1ccco1)n2C,active: 17.8 µM,–
CC(C)[C@H](N)C(=O)OCCOCn1cnc2c(=O)[nH]c(N)nc21,–,13.8%
CCC[C@H](N[C@@H](C)C(=O)N1[C@H](C(=O)O)C[C@@H]2CCCC[C@@H]21)C(=O)OCC,–,-19.7%
Nc1ccc(C(=O)NCC(=O)O)cc1,–,-20.5%
CC1(C)OC(=O)NC1=O,–,9.84%
Cc1ccc(/C(O)=C2\C(=O)C(=O)N(CC(C)O)C2c2cccc(F)c2)cc1 (stereo not drawn),active: 17.8 µM,–
CN(C)c1ccc(NCc2cccc(Br)c2)cc1,active: 7.94 µM,–
Cc1ccc2nc(N3C(=O)C(O)=C(C(=O)c4ccco4)C3c3ccc(O)cc3)sc2c1 (stereo not drawn),active: 22.4 µM,–
CC(=O)Oc1cccc2c1C(=O)c1c(OC(C)=O)cc(C(=O)O)cc1C2=O,–,33.9%
Cc1ncc(CSSCc2cnc(C)c(O)c2CO)c(CO)c1O,–,-13.1%
COc1ccc2c(c1)c(CC(=O)OC/C=C(\C)CC/C=C(\C)CCC=C(C)C)c(C)n2C(=O)c1ccc(Cl)cc1,–,0.441%
O=S(=O)(O)NC1CCCCC1,–,-56.1%
CC(C)NC[C@@H](O)COc1cccc2ccccc12,–,-66.7%
O=C(CS(=O)Cc1ccco1)NC/C=C\COc1cc(CN2CCCCC2)ccn1 (stereo not drawn),–,-18%
CCCCC(CC)COC(=O)/C=C/c1ccc(OC)cc1 (stereo not drawn),–,-28.5%
Cc1c(N(C)CS(=O)(=O)O)c(=O)n(-c2ccccc2)n1C,–,-15.1%
COc1ccc(CCN(C)CCCC(C#N)(c2cc(OC)c(OC)c(OC)c2)C(C)C)cc1OC (stereo not drawn),–,-30.9%
Nc1cc(C(Cl)=C(Cl)Cl)c(S(N)(=O)=O)cc1S(N)(=O)=O,–,25%

# Taken from above:
# Entry of CC1(C)OC(=O)NC1=O under activity change, negative = inhibition: 9.84%
# Entry of CCC[C@H](N[C@@H](C)C(=O)N1[C@H](C(=O)O)C[C@@H]2CCCC[C@@H]21)C(=O)OCC under activity change, negative = inhibition: -19.7%
# Entry of CC(=O)Oc1cccc(O)c1 under activity change, negative = inhibition: 51.8%
# Entry of CCCc1c(OCCCCc2nn[nH]n2)ccc(C(C)=O)c1O under activity change, negative = inhibition: 11%
# Entry of CC(C)NC[C@@H](O)COc1cccc2ccccc12 under activity change, negative = inhibition: -66.7%
# Entry of CN(C)CCC[C@@]1(c2ccc(F)cc2)OCc2cc(C#N)ccc21 under activity change, negative = inhibition: 16.7%
# Entry of COc1ccc2c(c1)c(CC(=O)OC/C=C(\C)CC/C=C(\C)CCC=C(C)C)c(C)n2C(=O)c1ccc(Cl)cc1 under activity change, negative = inhibition: 0.441%

# Continuation.

SMILES,Potency,"activity change, negative = inhibition"
CC(C)C[C@H](NC(=O)CNC(=O)[C@H](Cc1ccc(O)cc1)NC(=O)[C@H](CO)NC(=O)[C@H](Cc1c[nH]c2ccccc12)NC(=O)[C@H](Cc1cnc[nH]1)NC(=O)[C@@H]1CCC(=O)N1)C(=O)N[C@@H](CCCN=C(N)N)C(=O)N1CCC[C@H]1C(=O)NCC(N)=O (stereo in doubt),–,-6.87%
CC1(C)S[C@@H]2[C@H](NC(=O)Cc3ccccc3)C(=O)N2[C@H]1C(=O)O (tested in a mixture with another compound),–,51.1%
NC(=O)NS(=O)(=O)c1ccc(Cl)cc1,–,45.8%
C[N+](C)(C)CC[N+]1(C)Cc2c(Cl)c(Cl)c(Cl)c(Cl)c2C1,–,1.03%
O=C(N/N=C\C=C\c1ccco1)c1cc(-c2ccc3ccccc3c2)n[nH]1,active: 39.8 µM,–
Cc1ccccc1OCC(=O)OCC(=O)Nc1ncc(Cl)c(C)c1Cl,active: 8.91 µM,–
Nc1nc(=S)c2[nH]cnc2[nH]1,–,1.87%
COc1cc(C(=O)NC(=S)NC(C)C)cc(OC)c1OC,active: 35.5 µM,–
CC(=O)[C@]1(O)Cc2c(O)c3c(c(O)c2[C@@H](O[C@H]2C[C@H](N)[C@H](O)[C@H](C)O2)C1)C(=O)c1ccccc1C3=O,–,14.1%
COc1ccc(C2CNC(=O)C2)cc1OC1CCCC1 (stereo not drawn),–,-15.7%
CC(=O)O[C@@H]1CC2C3CCc4cc(OC(=O)c5ccccc5)ccc4C3CCC2(C)[C@H]1OC(C)=O (stereo partly drawn),–,-2.09%
CC[C@@H](NC(=O)[C@@H](Cc1ccccc1)NC(=O)CC[C@H]1O[C@@H](n2ccc(=O)[nH]c2=O)[C@H](O)[C@@H]1O)c1ccccc1,active: 31.6 µM,–
COc1cccc(CC(=O)N2CCC3(CC2)NC(=O)N(c2cccc(Cl)c2)N3)c1,active: 1.41 µM,–
COc1ccccc1CNS(=O)(=O)c1cc(CN2C(=O)c3cccnc3C2=O)ccc1OC,active: 35.5 µM,–
CN1C[C@H]2c3ccccc3Oc3ccc(Cl)cc3[C@@H]2C1,–,9.1%
c1ccc([C@H]2CN3CCSC3=N2)cc1,–,25.5%
CCOC(=O)N1CCC(n2c(=O)[nH]c3cc(Cl)ccc32)CC1,–,2.62%
O=C(Nc1ccc(Oc2ccc(Cl)cc2)c(Cl)c1)c1cc(I)cc(I)c1O,–,49.9%
CCOC(=O)[C@H](CCc1ccccc1)N[C@H]1CS[C@H](c2cccs2)CN(CC(=O)O)C1=O,–,11.1%
Cc1ccc(O)cc1,–,52%
Cc1cc(C)nc(/N=c2/ssnc2Cl)c1,active: 8.91 µM,–
Cc1ccc(CN2CCN(C(=O)c3cccc4ccccc34)CC2)cc1,active: 1.26 µM,–
Clc1cccc(C(c2ccc3nc[nH]c3c2)n2ccnc2)c1 (stereo not drawn),–,-14.5%
O=C(O)C(c1c[nH]c2cc(Cl)ccc12)N1CCN(CCOc2ccc(Cl)cc2)CC1 (stereo not drawn),active: 35.5 µM,–
CC(C)NCC(O)c1ccc2ccccc2c1 (stereo not drawn),–,2.68%

SMILES,Potency,"activity change, negative = inhibition"
Cc1nc(NCc2ccc3c(c2)OCO3)c2oc3ccccc3c2n1,active: 22.4 µM,–
N=C(N)c1ccc2cc(OC(=O)c3ccc(N=C(N)N)cc3)ccc2c1,–,20.1%
Cc1cccc(C)c1NC(=S)NC(=O)c1cccc(Cl)c1,active: 31.6 µM,–
CC(C)=CCC/C(C)=C/CO,–,-5.73%
COC(=O)Nc1nc2ccc(S(=O)c3ccccc3)cc2[nH]1 (stereo not drawn),–,19.5%
CCn1cc(C(=O)O)c(=O)c2cc3c(cc21)OCO3,–,-2.24% [at 0.00147 µM]
Cc1cc(=O)oc2cc(O[C@@H]3SC[C@@H](O)[C@H](O)[C@H]3O)ccc12,–,-3.83%
CC(=O)NCCNc1ncncc1-c1ccc(N(C)C)cc1,active: 44.7 µM,–
O=C1CC2(CCCC2)CC(=O)N1CCCCN1CCN(c2ncccn2)CC1,–,27%
Cc1ccc2ccc(Cl)cc2n1,–,-13.1%
O=c1cc[nH]c(=S)[nH]1,–,-28.9%
CC(C)(C)C1CCC(CC2=C(O)c3ccccc3C(=O)C2=O)CC1 (stereo not drawn),–,14.6%
CC(C1CC2CCC1C2)n1c(-c2cccs2)n[nH]c1=S (stereo not drawn),active: 44.7 µM,–
COC(=O)c1ccc(O)cc1,–,-6.59%
C[C@@H]1C[C@H]2[C@@H]3C[C@H](F)C4=CC(=O)C(Cl)=C[C@]4(C)[C@@]3(F)[C@@H](O)C[C@]2(C)[C@@]1(O)C(=O)CO,–,-44.5%
O=C(/C=C/c1ccc(-c2ccccc2Cl)o1)c1ccccc1Br,active: 4.47 µM,–
N#C/C(=C/c1ccc(N2CCOCC2)o1)c1ccc(Cl)cc1,active: 7.94 µM,–
CCN(C)C(=O)Oc1cccc([C@H](C)N(C)C)c1,–,18.7%
O=C(NCC1CN(c2ccc(N3CCOCC3=O)cc2)C(=O)O1)c1ccc(Cl)s1 (stereo not drawn),–,19.7%
C=CCSc1nc2sc3c(c2c(=O)n1CC)CCc1ccccc1-3,active: 7.08 µM,–
COC(=O)C(c1ccccc1Cl)N1CCc2sccc2C1 (stereo not drawn),–,-18.4%
CC1(C)C(c2ccccc2)=NC(c2ccc(Br)cc2)N1O (stereo not drawn),active: 7.94 µM,–
CCOCC(O)COc1ccc(NC(=O)CC[S+](C)C)cc1 (stereo not drawn),–,-2.59%
CCOc1ccccc1O[C@H](c1ccccc1)[C@H]1CNCCO1,–,6.64%
O=S(=O)(O)c1ccc2nc(-c3ccccc3)[nH]c2c1,–,-34.9%

SMILES,Potency,"activity change, negative = inhibition"
CC(C)n1c(CSCc2ccc(Cl)cc2Cl)n[nH]c1=S,active: 44.7 µM,–
Cc1ccc(C(NC(=O)C2CCN(CCOc3ccc(Cl)cc3Cl)CC2)c2ccccn2)cc1 (stereo not drawn),active: 56.2 µM,–
CC12CCC(CC1)C(C)(C)O2,–,-36.5%
CC(=O)Nc1ncc([N+](=O)[O-])s1,–,-4.85%
O=C(O)COC(=O)Cc1ccccc1Nc1c(Cl)cccc1Cl,–,-6.88%
O=c1[nH]c(NNC(=S)NCc2ccccc2)nc2c1C1(CCCCC1)Cc1ccccc1-2,active: 35.5 µM,–
OC1(c2ccc(Cl)c(C(F)(F)F)c2)CCN(CCCC(c2ccc(F)cc2)c2ccc(F)cc2)CC1,–,-11.3%
CC1CCCC(NC(=S)NC(=O)c2ccco2)C1C (stereo not drawn),active: 31.6 µM,–
O=C(NC(=S)Nc1cccc(O)c1)C12CC3CC(CC(C3)C1)C2,active: 22.4 µM,–
CC1(C)O[C@@H]2C[C@H]3[C@@H]4CCC5=CC(=O)C=C[C@]5(C)[C@@]4(F)[C@@H](O)C[C@]3(C)[C@]2(C(=O)CO)O1,–,23.4%
O=C(O)c1ccc(-n2cccc2/C=N\NC(=O)c2cc3cc(Br)ccc3o2)cc1,active: 35.5 µM,–
Cc1cnc(NC(=O)C2=C(O)c3ccccc3S(=O)(=O)N2C)s1,–,46.3%
O=C(O)CCCc1ccccc1,–,16.9%
COc1cc(/C=C(/C#N)C(=O)c2c(Cl)cccc2Cl)cc(OC)c1,active: 28.2 µM,–
C1CCN2C[C@@H]3C[C@@H](CN4CCCC[C@@H]34)[C@H]2C1,–,20.2%
Brc1ccc2nc(-c3ccco3)c(CC3CCCCC3)n2c1,active: 15.8 µM,–
CCN1CCC[C@H]1CNC(=O)c1c(OC)ccc(Br)c1OC,–,28.2%
CCCCCNC(=O)C(C1CC1)n1c(=O)c(-c2ccco2)nc2ccccc21 (stereo not drawn),active: 35.5 µM,–
Oc1ccc(OCc2ccccc2)cc1,–,15.8%
CO[C@@]12[C@H](COC(N)=O)C3=C(C(=O)C(C)=C(N)C3=O)N1C[C@@H]1N[C@@H]12,–,9.48%
Cc1ccc(Cl)c(Nc2ccccc2C(=O)O)c1Cl,–,51.8%
CCN1CCN(C(=O)N[C@@H](C(=O)N[C@@H]2C(=O)N3C(C(=O)O)=C(CSc4nnnn4C)CS[C@H]23)c2ccc(O)cc2)C(=O)C1=O,–,12.6%
COCCOC(=O)C1=C(C)NC(C)=C(C(=O)OC/C=C/c2ccccc2)C1c1cccc([N+](=O)[O-])c1 (stereo not drawn),–,26.3%
